Test results: patent publication US20220031857A1
Results are given in words; binding and its absence hold for the method and conditions named. Some binding calls cover weakened binding; strength is not graded here.

The chains behind the UniProt entries cited, without tags or fusion partners. Residues count along the entry.
UniProt Q62351, residues 89-763: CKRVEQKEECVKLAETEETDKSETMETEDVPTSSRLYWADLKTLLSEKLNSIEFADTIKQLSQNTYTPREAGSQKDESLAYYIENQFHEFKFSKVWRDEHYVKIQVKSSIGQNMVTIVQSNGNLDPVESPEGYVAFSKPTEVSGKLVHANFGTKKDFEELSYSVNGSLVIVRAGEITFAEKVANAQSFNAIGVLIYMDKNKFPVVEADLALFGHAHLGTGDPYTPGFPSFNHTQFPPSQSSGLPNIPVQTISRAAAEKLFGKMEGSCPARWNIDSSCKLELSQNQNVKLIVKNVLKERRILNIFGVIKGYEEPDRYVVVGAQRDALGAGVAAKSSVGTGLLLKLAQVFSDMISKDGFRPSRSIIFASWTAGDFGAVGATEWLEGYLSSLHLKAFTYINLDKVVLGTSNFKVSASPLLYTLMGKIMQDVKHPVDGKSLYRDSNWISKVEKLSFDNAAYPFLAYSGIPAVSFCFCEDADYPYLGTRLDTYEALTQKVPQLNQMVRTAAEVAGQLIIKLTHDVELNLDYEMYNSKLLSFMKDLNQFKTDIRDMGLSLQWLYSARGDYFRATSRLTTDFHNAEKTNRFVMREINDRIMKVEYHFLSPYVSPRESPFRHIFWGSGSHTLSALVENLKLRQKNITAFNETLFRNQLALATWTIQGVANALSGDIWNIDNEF

Legend:
[1] = target: recombinant human TfR1 (transferrin receptor 1) (human) (UniProt P02786); assay: phage ELISA
[2] = target: recombinant mouse TfR1 (transferrin receptor 1) (mouse) (UniProt Q62351); assay: phage ELISA

B1: SEQ ID NO 46 (VNAR clone displayed on phage) (VNAR)
VNAR: ARVDQTPRSVTKETGESLTINCVLRDASYALGSTCWYRKKSGSTNEESISKGGRYVETVNSGSKSFSLRINDLTVEDGGTYRCGVCSDYGLQTTGQQAACGDGTAVTVNA
binding [1]: binds
binding [2]: binds
